The values below are quoted from earlier work in article PMC6009889, “Kinetic and structural studies on the interactions of Torpedo californica acetylcholinesterase with two donepezil-like rigid analogues” (Journal of Enzyme Inhibition and Medicinal Chemistry, 2018).

The conditions of this series: cited from earlier work.

As usually defined, the pKa is the pH at which an ionisable group is half protonated. Regarding `COc1cc2c(cc1OC)C(=O)C(CC1CCN(Cc3ccccc3)CC1)C2` (stereo not shown) [Donepezil, donepezil], the pKa is recorded as 8.94 ± 0.18.
